The source of these data is US20150258059A1, “ANTIMICROBIAL AND RADIOPROTECTIVE COMPOUNDS” (BioDiem, Ltd, priority 2001, published 2015).

As usually defined, the MIC is the smallest concentration in the dilution series that meets the test's criterion for growth inhibition.

Values after ≈ are worked out from the molar mass of the structure shown.

This assay concerns Aspergillus fumigatus. Put plainly: M38-P microdilution MIC/MFC. As to conditions: Table 16, 48 h, 35° C. Type of assay: cell-based. For orientation: In broth dilution the organism is exposed to a series of concentrations in liquid medium.

For the molecule `C[C@@H]1[C@H](O)[C@@H](C)/C=C/C=C/C=C/C=C/C=C/C=C/C=C/[C@H](O[C@@H]2O[C@H](C)[C@@H](O)[C@H](N)[C@@H]2O)C[C@@H]2O[C@](O)(C[C@@H](O)C[C@@H](O)[C@H](O)CC[C@@H](O)C[C@@H](O)CC(=O)O[C@H]1C)C[C@H](O)[C@H]2C(=O)O` [Amphotericin B], the minimum inhibitory concentration (MIC) amounted to 1 µg/mL (≈ 1.08 µM).
